Results reported in patent publication US20230203162A1.
Positions count from the first letter of the chain named. No constants are given. Whether binding was seen depends on the method and setting. Some entries that bind do so weakly or less than the wild type. Values belong to the binder of their own block, whether it stands above or below them.

Sequences of proteins named here, by UniProt entry; tags and fusion partners are left off. A change or cut given only in a name is not applied to a line headed by its entry. A line that says so, or that is headed by a name, gives the form on record, which may keep a tag or linker.
recombinant human MSLN (purchased from Peprotech) (Q13421, form named): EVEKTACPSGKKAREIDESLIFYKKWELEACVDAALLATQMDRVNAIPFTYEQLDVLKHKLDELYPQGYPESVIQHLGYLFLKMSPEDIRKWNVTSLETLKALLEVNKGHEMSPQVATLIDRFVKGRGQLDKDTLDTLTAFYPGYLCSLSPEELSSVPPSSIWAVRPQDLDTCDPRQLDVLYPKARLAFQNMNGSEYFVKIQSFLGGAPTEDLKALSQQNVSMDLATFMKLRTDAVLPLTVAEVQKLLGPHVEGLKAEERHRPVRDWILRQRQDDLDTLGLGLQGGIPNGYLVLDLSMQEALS

Target: recombinant human MSLN (purchased from Peprotech) (human) (UniProt Q13421)
Test: SPR

binding: binds
B1: PRO2562 (MATCH4) (protein)
chain 1: ALQMTQSPSSLSARVGDRVTIKCQASQSISNYLAWYQQKPGKPPKFLIYDASDLASGVPSRFSGSGSGRDFTLTISSLQPEDFATYYCQQVYDSNNVENVFGCGTKVTVLGGGGGSGGGGSGGGGSGGGGSQSQLVESGGGLVQPGGSLRLSCAVSGFSLSSYAMGWVRQAPGKCLEYIGYISKIGTTYYASWAKGRFTISKDNSKNTVYLQMNSLRAEDTAVYFCARGSSSGGYLDDGFDPWGQGTLVTVSSGGGGSGGGGSEVQLVESGGGLVQPGGSLRLSCAASGFSLSSYDMSWVRQAPGKGLAWIGASYASGPTYYASWAKGRFTISRDNSKNTVYLQMCSLRAEDTATYFCARGGWTGTSHSNIWGQGTLVTVSSGGGSGGGSGGGSGEVQLVESGGGLVQPGGSLRLSCAASGFSLSSYAMNWVRQAPGKCLEWIGHINAGDIAYYATWAKGRFTISRDNSKNTVYLQMNSLRAEDTAVYFCARGAGGFSTGPFKLWGQGTLVTVSS
chain 2: ALQMTQSPSSLSARVGDRVTIKCQASQSISNYLAWYQQKPGKPPKFLIYDASDLASGVPSRFSGSGSGRDFTLTISSLQPEDFATYYCQQVYDSNNVENVFGCGTKVTVLGGGGGSGGGGSGGGGSGGGGSQSQLVESGGGLVQPGGSLRLSCAVSGFSLSSYAMGWVRQAPGKCLEYIGYISKIGTTYYASWAKGRFTISKDNSKNTVYLQMNSLRAEDTAVYFCARGSSSGGYLDDGFDPWGQGTLVTVSSGGGGSGGGGSAFELTQSPSSLSASVGDRVTITCQASESINSRLAWYQQKPGQPPKLLIYDASDLTSGVPSRFSGSGSGTDFTLTISCLQPEDFATYYCQGYGGSSTTTFGCGTKLTVLGGGSGGSGGSGGSGDIQMTQSPSSLSASVGDRVTITCQSSQSVFSNNYLAWFQQKPGQSPKRLIYSASTLASGVPSRFSGSGSGTDFTLTISSLQPEDFATYYCLGSYACSSADCYVFGTGTKVTVLG

binding: binds
B2: PRO2000 (MATCH4, biMSLNhigh KD×CD3×hSA) (protein)
chain 1: DIQMTQSPSSLSASVGDRVTITCQASQNIYSNLAWYQQKPGKAPKLLIYDASDLASGVPSRFSGSGSGTDFTLTISSLQPEDFATYYCQQVRSSSDIDNPFGTGTKVTVLGGGGGSGGGGSGGGGSGGGGSQVQLVESGGGLVQPGGSLRLSCAASGFSLSSYAMGWVRQAPGKGLEWIGYISTINNTYYASWAKGRFTISRDNSKNTVYLQMNSLRAEDTAVYYCAREIRSGWVDYGFSIWGQGTLVTVSSGGGGSGGGGSEVQLVESGGGLVQPGGSLRLSCAASGFSLSSYDMSWVRQAPGKGLAWIGASYASGPTYYASWAKGRFTISRDNSKNTVYLQMNSLRAEDTATYFCARGGWTGTSHSNIWGQGTLVTVSSGGGSGGGSEVQLVESGGGLVQPGGSLRLSCAASGFSFSSSYWICWVRQAPGKCLEWVGCVFTGDGTTYYASWAKGRFTISRDNSKNTVYLQMNSLRAEDTATYFCARPVSVYYYGMDLWGQGTLVTVSS
chain 2: DIQMTQSPSSLSASVGDRVTITCQASQNIYSNLAWYQQKPGKAPKLLIYDASDLASGVPSRFSGSGSGTDFTLTISSLQPEDFATYYCQQVRSSSDIDNPFGTGTKVTVLGGGGGSGGGGSGGGGSGGGGSQVQLVESGGGLVQPGGSLRLSCAASGFSLSSYAMGWVRQAPGKGLEWIGYISTINNTYYASWAKGRFTISRDNSKNTVYLQMNSLRAEDTAVYYCAREIRSGWVDYGFSIWGQGTLVTVSSGGGGSGGGGSDVVMTQSPSSLSASVGDRVTITCQASQIISSRSAWYQQKPGQPPKLLIYQASKLASGVPSRFSGSGSGTDFTLTISSLQPEDFATYYCQCTYIDSNFGAFGCGTKLTVLGGGSGGSDIQMTQSPSSLSASVGDRVTITCQSSQSVFSNNYLAWFQQKPGQSPKRLIYSASTLASGVPSRFSGSGSGTDFTLTISSLQPEDFATYYCLGSYACSSADCYVFGTGTKVTVLG

binding: binds
B3: anti-MSLN scFv PRO1922 (scFv)
scFv: DIQMTQSPSSLSASVGDRVTITCQASESIYSSLAWYQQKPGKAPKLLIYLASTLASGVPSRFSGSGSGTDFTLTISSLQPEDFATYYCQSTDYTTSTHRNSFGTGTKVTVLGGGGGSGGGGSGGGGSGGGGSEVQLVESGGGLVQPGGSLRLSCAASGFSFSTTYYMCWVRQAPGKGLEWIGCTNTASSVRTYYATWAKGRFTISRDNSKNTVYLQMNSLRAEDTAVYYCARDMGFADYALNLWGQGTLVTVSS

binding: binds
B4: anti-MSLN scFv PRO1925 (scFv)
scFv: ALQMTQSPSSLSASVGDRVTITCQASQSISNYLAWYQQKPGKPPKFLIYDASDLASGVSSRFSGSGSGTDFTLTISSLQPEDFATYYCQQVYDSNNVENVFGTGTKVTVLGGGGGSGGGGSGGGGSGGGGSQSQLVESGGGLVQPGGSLRLSCAVSGFSLSSYAMGWVRQAPGKGLEYIGYISKIGTTYYASWAKGRFTISKDNSKNTVYLQMNSLRAEDTAVYFCARGSSSGGYLDDGFDPWGQGTLVTVSS

binding: binds
B5: anti-MSLN scFv PRO2309 (scFv)
scFv: B4 scFv with S14R, T22K, S59P, T69R, T103C, G175C

binding: binds
B6: anti-MSLN scFv PRO2306 (scFv)
scFv: B4 scFv with S14R, T22K, S59P, T69R

binding: binds
B7: PRO1872 (scMATCH3, MSLNlow KD×CD3×hSA) (protein)
chain: DVVMTQSPSSLSASVGDRVTITCQASQIISSRSAWYQQKPGQPPKLLIYQASKLASGVPSRFSGSGSGTDFTLTISSLQPEDFATYYCQCTYIDSNFGAFGCGTKLTVLGGGGGSEVQLVESGGGLVQPGGSLRLSCAASGFSLSSYDMSWVRQAPGKGLAWIGASYASGPTYYASWAKGRFTISRDNSKNTVYLQMNSLRAEDTATYFCARGGWTGTSHSNIWGQGTLVTVSSGGGGSGGGGSGGGGSGGGGSDIQMTQSPSSLSASVGDRVTITCQSSQSVFSNNYLAWFQQKPGQSPKRLIYSASTLASGVPSRFSGSGSGTDFTLTISSLQPEDFATYYCLGSYACSSADCYVFGTGTKVTVLGGGGGSEVQLVESGGGLVQPGGSLRLSCAASGFSFSSSYWICWVRQAPGKCLEWVGCVFTGDGTTYYASWAKGRFTISRDNSKNTVYLQMNSLRAEDTATYFCARPVSVYYYGMDLWGQGTLVTVSSGGGGSGGGGSDIQMTQSPSSLSASVGDRVTITCQASESIGNYLAWYQQKPGKAPKLLIYSASTLASGVPSRFSGSGSGTDFTLTISSLQPEDFATYYCQSTDYGDSYIFGTGTKVTVLGGGGGSGGGGSGGGGSGGGGSEVQLVESGGGLVQPGGSLRLSCAASGISVSNDYYMCWVRQAPGKGLEWIGCISTYIGNTHYASWAKGRFTISRDNSKNTVYLQMNSLRAEDTAVYYCAKNAGYPGYRYAIDLWGQGTLVTVSS

binding: binds
B8: anti-MSLN scFv PRO1783 (scFv)
scFv: DIQMTQSPSSLSASVGDRVTITCQASQNIYSNLAWYQQKPGKAPKLLIYDASDLASGVPSRFSGSGSGTDFTLTISSLQPEDFATYYCQQVRSSSDIDNPFGTGTKVTVLGGGGGSGGGGSGGGGSGGGGSQVQLVESGGGLVQPGGSLRLSCAASGFSLSSYAMGWVRQAPGKGLEWIGYISTINNTYYASWAKGRFTISRDNSKNTVYLQMNSLRAEDTAVYYCAREIRSGWVDYGFSIWGQGTLVTVSS

binding: binds
B9: PRO2566 (MATCH4) (protein)
chain 1: AFELTQSPSSLSASVGDRVTITCQASESINSRLAWYQQKPGQPPKLLIYDASDLTSGVPSRFSGSGSGTDFTLTISSLQPEDFATYYCQGYGGSSTTTFGTGTKLTVLGGGGGSGGGGSGGGGSGGGGSEVQLVESGGGLVQPGGSLRLSCAASGFSLSSYAMNWVRQAPGKGLEWIGHINAGDIAYYATWAKGRFTISRDNSKNTVYLQMNSLRAEDTAVYFCARGAGGFSTGPFKLWGQGTLVTVSSGGGGSGGGGSEVQLVESGGGLVQPGGSLRLSCAASGFSLSSYDMSWVRQAPGKGLAWIGASYASGPTYYASWAKGRFTISRDNSKNTVYLQMNSLRAEDTATYFCARGGWTGTSHSNIWGQGTLVTVSSGGGSGGGSGGGSGQSQLVESGGGLVQPGGSLRLSCAVSGFSLSSYAMGWVRQAPGKCLEYIGYISKIGTTYYASWAKGRFTISKDNSKNTVYLQMNSLRAEDTAVYFCARGSSSGGYLDDGFDPWGQGTLVTVSS
chain 2: ALQMTQSPSSLSARVGDRVTIKCQASQSISNYLAWYQQKPGKPPKFLIYDASDLASGVPSRFSGSGSGRDFTLTISSLQPEDFATYYCQQVYDSNNVENVFGCGTKVTVLGGGGGSGGGGSGGGGSGGGGSQSQLVESGGGLVQPGGSLRLSCAVSGFSLSSYAMGWVRQAPGKCLEYIGYISKIGTTYYASWAKGRFTISKDNSKNTVYLQMNSLRAEDTAVYFCARGSSSGGYLDDGFDPWGQGTLVTVSSGGGGSGGGGSALQMTQSPSSLSARVGDRVTIKCQASQSISNYLAWYQQKPGKPPKFLIYDASDLASGVPSRFSGSGSGRDFTLTISSLQPEDFATYYCQQVYDSNNVENVFGCGTKVTVLGGGSGGSGGSGGSGDIQMTQSPSSLSASVGDRVTITCQSSQSVFSNNYLAWFQQKPGQSPKRLIYSASTLASGVPSRFSGSGSGTDFTLTISSLQPEDFATYYCLGSYACSSADCYVFGTGTKVTVLG

binding: binds
B10: PRO2567 (MATCH4) (protein)
chain 1: B9 chain 1
chain 2: ALQMTQSPSSLSARVGDRVTIKCQASQSISNYLAWYQQKPGKPPKFLIYDASDLASGVPSRFSGSGSGRDFTLTISSLQPEDFATYYCQQVYDSNNVENVFGCGTKVTVLGGGGGSGGGGSGGGGSGGGGSQSQLVESGGGLVQPGGSLRLSCAVSGFSLSSYAMGWVRQAPGKCLEYIGYISKIGTTYYASWAKGRFTISKDNSKNTVYLQMNSLRAEDTAVYFCARGSSSGGYLDDGFDPWGQGTLVTVSSGGGGSGGGGSALQMTQSPSSLSARVGDRVTIKCQASQSISNYLAWYQQKPGKPPKFLIYDASDLASGVPSRFSGSGSGRDFTLTISSLQPEDFATYYCQQVYDSNNVENVFGCGTKVTVLGGGSGGSDIQMTQSPSSLSASVGDRVTITCQSSQSVFSNNYLAWFQQKPGQSPKRLIYSASTLASGVPSRFSGSGSGTDFTLTISSLQPEDFATYYCLGSYACSSADCYVFGTGTKVTVLG

binding: binds
B11: reference anti-MSLN scFv PRO1795 (scFv)
scFv: DIQMTQSPSSLSASVGDRVTITCQASESIGNYLAWYQQKPGKAPKLLIYSASTLASGVPSRFSGSGSGTDFTLTISSLQPEDFATYYCQSTDYGDSYIFGTGTKVTVLGGGGGSGGGGSGGGGSGGGGSEVQLVESGGGLVQPGGSLRLSCAASGISVSNDYYMCWVRQAPGKGLEWIGCISTYIGNTHYASWAKGRFTISRDNSKNTVYLQMNSLRAEDTAVYYCAKNAGYPGYRYAIDLWGQGTLVTVSS
